# Reference: PubChem BioAssay AID2685 (National Center for Advancing Translational Sciences (NCATS), 2010)
# The other results are listed elsewhere or left out. Further columns of the screen follow, without active or inactive calls. Most of these compounds were active or inconclusive in the main read-out, so they are no random draw. The note in brackets gives the kind of curve behind each potency; many fits are weak.
# Experiment: qHTS Assay for Lipid Storage Modulators in Drosophila S3 Cells;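 on cell number change: cells counted by Cell Tracker Red CMTPX staining in the red channel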
# Conditions: BODIPY lipid droplet fluorescence, 18-24 h; for cell number change: measured here: cell count max response, cells fed with added oleic acid
# In short: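 Laser-scanning cytometry quantifies lipid droplet accumulation (500–530 nm total intensity; droplet/cell object ratio) in oleic acid-fed (400 uM added) Drosophila S3 cells treated with a concentration series. 20 uM Triacsin C defined 100% inhibition.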
# [1] = measured here: cell number channel AC50, cells fed with added oleic acid
# [2] = measured here: lipid fluorescence (Fed channel) AC50, cells fed with added oleic acid
Structure (SMILES),AC50 [1],AC50 [2],cell number change
COc1ccc2oc(-c3ccc(C)c(NC(=O)c4ccc(N5CCOCC5)c([N+](=O)[O-])c4)c3)nc2c1,"0.517 µM [falling, full curve]","1.64 µM [falling, partial curve]",–
CCOC(=O)c1ccc(Nc2ncnc3ccc(C)cc23)cc1,–,"6.51 µM [rising, single point]",6.9%
O=C(CN1CCN(C(=O)C2CCCO2)CC1)Nc1ccc(Cl)c(Cl)c1 (configuration not stated),–,"0.58 µM [rising, single point]",6.91%
COc1ccc(-c2nnc3sc(-c4ccco4)nn23)cc1OC,–,–,-28.5%
CCCOc1ccc(C(C)=O)cc1CC(C(N)=O)C(N)=O,"4.61 µM [falling, full curve, poor fit]","29.1 µM [falling, single point]",-32.7%
O=C(Nc1ccnn1C1CCN(C(=O)Cc2cccc(Cl)c2)CC1)C1CC1,–,"0.58 µM [falling, single point]",6.93%
CCCCN1C(C)=CC(=C2C(=O)c3ccccc3C2=O)C=C1C,"29.1 µM [rising, single point]",–,38%
CC1CC(C)CN(C(=O)C2CCN(S(=O)(=O)c3cccc4cccnc34)CC2)C1 (configuration not stated),–,"29.1 µM [rising, single point]",–
CCN(CC)S(=O)(=O)c1cccc(-c2nnc(-c3ccc(C)cc3)o2)c1,–,"6.51 µM [rising, single point]",5.24%
CCCCCC1CC(=O)N(Cc2ccc(Cl)cc2)C(=O)N1 (configuration not stated),–,–,-6.05%
COc1ccc(N2C(=O)CC(n3c(CCCCO)nc4ccccc43)C2=O)cc1 (configuration not stated),–,"14.6 µM [rising, single point]",12.1%
O=C(Nc1ccc(Cl)cc1)c1csc(Cc2ccccc2)n1,"5.17 µM [falling, single point]","3.26 µM [falling, single point]",-36.5%
O=C(CC1(O)C(=O)Nc2ccccc21)c1ccccc1 (configuration not stated),"3.26 µM [falling, full curve, poor fit]","4.61 µM [falling, full curve]",-48%
COCC1CCN(Cc2nc(-c3cccs3)no2)C1 (configuration not stated),–,–,2.89%
O=C(COc1ccccc1Br)c1ccc2c(c1)OCO2,–,–,25%
COc1ccc(-c2c(C#Cc3ccccc3)c3ccccc3n2C)cc1,–,–,-17.7%
CCOC(=O)N1CCC(NC(=O)c2cc(S(=O)(=O)N3CCOCC3)ccc2F)CC1,"1.16 µM [falling, single point]",–,6.09%
COc1ccc(-c2ccc(NC(=O)c3ccc(Br)o3)cc2)nn1,"0.411 µM [rising, full curve, poor fit]",–,36.9%
O=C1C(c2ccc(F)cc2)N(Cc2ccc3c(c2)OCO3)C(=O)CN1C1CCCC1 (configuration not stated),–,"1.64 µM [rising, partial curve]",6.73%
O=C(CCC(=O)N1CCN(S(=O)(=O)c2ccc(Cl)cc2)CC1)Nc1ccc2ccccc2c1,–,"8.2 µM [rising, partial curve]",17.6%

# In a second layout: two of the compounds above.
Structure (SMILES) | AC50 [1] | AC50 [2] | cell number change
CCOC(=O)c1ccc(Nc2ncnc3ccc(C)cc23)cc1 | – | 6.51 µM [rising, single point] | 6.9%
O=C(CN1CCN(C(=O)C2CCCO2)CC1)Nc1ccc(Cl)c(Cl)c1 (configuration not stated) | – | 0.58 µM [rising, single point] | 6.91%

# More compounds follow.

Structure (SMILES),AC50 [1],AC50 [2],cell number change
Cn1nc(C(F)(F)F)c(C#N)c1N1CCN(c2ccccc2)CC1,"0.58 µM [rising, full curve, poor fit]",–,38.7%
COc1ccccc1-n1c(C)nnc1SCC(=O)Nc1cc(C)cc(C)c1,"0.231 µM [rising, full curve, poor fit]","0.291 µM [rising, full curve, poor fit]",–
COc1ccc(CNC(=O)CN(C2CCCCC2)S(C)(=O)=O)cc1,"20.6 µM [falling, partial curve]","1.3 µM [falling, partial curve, poor fit]",-31.8%
O=C(COC(=O)CC1CC2CCC1C2)Nc1cc([N+](=O)[O-])ccc1F (configuration not stated),"16.4 µM [falling, single point]",–,-34%
CC1CCN(C(=O)c2ccc(S(=O)(=O)N(C)C)cc2)C(C)C1 (configuration not stated),"29.1 µM [falling, single point]",–,-74.8%
CN(CC(=O)NCCN1CCN(c2ccccc2)CC1)S(=O)(=O)c1ccc2c(c1)CCC(=O)N2,–,"6.51 µM [falling, single point]",3.78%
Cc1cc(Br)ccc1OCC(=O)NC1CCCC1,"0.146 µM [rising, full curve, poor fit]",–,-8.91%
O=C(N/N=C/c1ccc[nH]1)c1ccc2c(c1)OCO2,"1.84 µM [rising, partial curve]",–,–
Cc1ccc(C(=O)NC(C)(COc2nonc2C)COc2nonc2C)cc1,–,"0.326 µM [rising, full curve]",-5.29%
CCOc1ccc(-n2nnnc2SCC(=O)NC2CCCC2)cc1,–,"5.8 µM [rising, partial curve, poor fit]",-21.8%
CC(=O)c1c(C)[nH]c(C(=O)N2CCN(S(=O)(=O)c3ccc(C)cc3C)CC2)c1C,–,–,-10.9%
CCN1C=C(Cc2ccc(F)cc2)C2=C(C1)C(c1ccc(F)cc1)C(C#N)=C(N)O2 (configuration not stated),"2.06 µM [rising, single point]",–,–
Cc1ccc(S(=O)(=O)Nc2cccc(C(=O)NCCCN3CCCC3=O)c2)cc1F,"6.51 µM [rising, single point]",–,–
Cc1[nH]c(=O)[nH]c(=O)c1S(=O)(=O)N1CCN(c2cccc(Cl)c2)CC1,–,"0.0058 µM [rising, full curve, poor fit]",3.65%
O=C(NCCOc1ccccc1)C(c1ccccc1)c1ccccc1,"13 µM [rising, partial curve]",–,156%
CC1=NN(C(=O)Cc2ccc(C)cc2)C(O)(c2cccnc2)C1 (configuration not stated),–,"11.6 µM [rising, partial curve, poor fit]",17.6%
N#Cc1cc2c([nH]c1=S)CCCCCC2,–,"29.1 µM [rising, single point]",1.55%
Cc1c(/C=N/NC(=O)c2ccc(O)cc2)c2ccccn2c1C(=O)c1ccc(F)cc1,"6.51 µM [rising, single point]","29.1 µM [rising, single point]",11.1%
Cc1ccc(NS(=O)(=O)c2cc(C(=O)N3CCN(C)CC3)ccc2C)cc1,–,"6.51 µM [falling, single point]",–
